Data from article PMC12828377, “HDAC6-mediated PFKL deacetylation enhances aerobic glycolysis and promotes VSMC proliferation” (The Journal of Biological Chemistry, 2025).
No constants are given. Whether binding was seen depends on the method and setting. Binding seen in cells or lysates may run through a third protein. Some results given as binding are weak or reduced against the parent protein; the word gives no strength. Values belong to the molecule of their own block, whether it stands above or below them.

Sequences of proteins named here, by UniProt entry; tags and fusion partners are left off.
UniProt A0A8I6GM68: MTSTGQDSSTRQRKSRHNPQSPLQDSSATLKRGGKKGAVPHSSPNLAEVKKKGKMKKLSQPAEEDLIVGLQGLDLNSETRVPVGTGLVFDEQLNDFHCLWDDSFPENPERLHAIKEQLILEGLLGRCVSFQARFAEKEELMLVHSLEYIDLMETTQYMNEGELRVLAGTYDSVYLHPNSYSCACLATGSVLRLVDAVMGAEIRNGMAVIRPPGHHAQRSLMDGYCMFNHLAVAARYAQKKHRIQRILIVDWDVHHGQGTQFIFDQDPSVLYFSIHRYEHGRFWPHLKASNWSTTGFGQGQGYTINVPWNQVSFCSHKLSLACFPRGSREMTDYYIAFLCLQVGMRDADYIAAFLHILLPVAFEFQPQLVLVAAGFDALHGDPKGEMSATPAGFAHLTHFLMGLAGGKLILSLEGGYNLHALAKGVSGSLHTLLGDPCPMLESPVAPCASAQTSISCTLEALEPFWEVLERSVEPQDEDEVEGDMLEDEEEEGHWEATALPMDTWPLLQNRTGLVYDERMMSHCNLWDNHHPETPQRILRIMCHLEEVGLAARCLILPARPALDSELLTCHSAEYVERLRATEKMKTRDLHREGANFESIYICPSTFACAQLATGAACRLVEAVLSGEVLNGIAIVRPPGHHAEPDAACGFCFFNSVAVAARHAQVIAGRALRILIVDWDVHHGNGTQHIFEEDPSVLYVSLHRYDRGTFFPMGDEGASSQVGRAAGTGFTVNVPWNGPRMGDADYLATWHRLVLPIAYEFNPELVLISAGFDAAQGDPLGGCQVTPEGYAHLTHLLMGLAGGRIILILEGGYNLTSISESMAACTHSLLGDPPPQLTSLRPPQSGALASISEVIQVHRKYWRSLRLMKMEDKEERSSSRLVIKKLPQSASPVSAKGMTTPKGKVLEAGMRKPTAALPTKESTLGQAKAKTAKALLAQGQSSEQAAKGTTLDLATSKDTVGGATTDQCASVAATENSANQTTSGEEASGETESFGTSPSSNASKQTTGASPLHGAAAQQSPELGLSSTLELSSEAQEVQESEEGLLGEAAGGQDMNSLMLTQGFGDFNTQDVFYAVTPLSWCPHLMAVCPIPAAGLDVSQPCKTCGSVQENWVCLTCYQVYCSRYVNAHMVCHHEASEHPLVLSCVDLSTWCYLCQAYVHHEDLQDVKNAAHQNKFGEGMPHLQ

Columns and labels:
[1] = molecular target: T1, phosphofructokinase, liver type (PFKL) (rat (endogenous in primary rat VSMCs)) (UniProt P30835); assay: proximity ligation; in situ PLA (NaveniFlex kit) in VSMCs fixed with 4% paraformaldehyde, antibodies against PFKL and HDAC6; with or without PDGF-BB
T1 sequence: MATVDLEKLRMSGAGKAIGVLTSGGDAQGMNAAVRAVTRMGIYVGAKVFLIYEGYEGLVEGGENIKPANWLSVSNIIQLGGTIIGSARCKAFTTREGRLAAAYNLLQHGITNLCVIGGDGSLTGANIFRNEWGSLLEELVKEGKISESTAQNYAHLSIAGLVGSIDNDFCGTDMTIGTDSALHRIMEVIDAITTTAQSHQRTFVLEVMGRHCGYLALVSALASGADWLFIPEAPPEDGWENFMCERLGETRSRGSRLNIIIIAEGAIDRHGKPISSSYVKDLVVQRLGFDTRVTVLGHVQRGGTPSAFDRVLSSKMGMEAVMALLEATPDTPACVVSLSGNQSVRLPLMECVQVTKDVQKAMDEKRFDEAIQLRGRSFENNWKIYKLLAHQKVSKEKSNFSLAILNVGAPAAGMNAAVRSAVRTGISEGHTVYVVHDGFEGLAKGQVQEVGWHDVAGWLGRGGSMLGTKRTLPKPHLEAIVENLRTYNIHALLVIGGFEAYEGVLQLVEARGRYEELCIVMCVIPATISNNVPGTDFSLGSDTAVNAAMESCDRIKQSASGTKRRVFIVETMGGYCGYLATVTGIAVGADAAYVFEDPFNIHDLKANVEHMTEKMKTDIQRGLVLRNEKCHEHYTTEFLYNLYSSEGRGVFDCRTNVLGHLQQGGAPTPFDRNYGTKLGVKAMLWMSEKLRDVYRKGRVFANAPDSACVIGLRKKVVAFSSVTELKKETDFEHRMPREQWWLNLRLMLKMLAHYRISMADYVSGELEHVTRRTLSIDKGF

[2] = molecular target: T1, phosphofructokinase, liver type (PFKL) (rat (endogenous in primary rat VSMCs)); assay: co-IP; endogenous proteins in VSMC lysate (NP-40 lysis buffer), indicated antibodies and protein A/G agarose at 4 °C, Western blot; with or without PDGF-BB for 24 h
[3] = molecular target: phosphofructokinase, muscle type (PFKM) (rat (endogenous in primary rat VSMCs)) (UniProt P47858); assay: cross-linking; VSMC lysate (700 ug protein in NP40 buffer) fixed with 0.1% glutaraldehyde on ice for 10 min, then Western blot; cells with or without PDGF-BB (10 ng/ml, different durations), TSA or NAM, or transduced with Ad-PFKL WT/K563Q/K563R
[4] = molecular target: phosphofructokinase, platelet type (PFKP) (rat (endogenous in primary rat VSMCs)) (UniProt P47860); assay: as above

binding [1]: binds
binding [2]: binds
Molecule: HDAC6 (from UniProt A0A8I6GM68 1-1183) (enzyme)

binding [3]: no binding
B1: phosphofructokinase, muscle type (PFKM) (enzyme, UniProt P47858 1-780)
chain: MTHEEHHEAKTLGIGKAIAVLTSGGDAQGMNATVRAVVRVGIFTGLRVFFVHEGYQGLVDGGEHIREATWESVSMMLQLGGTVIGSARCKDFREREGRLRAAHNLVKRGITNLCVIGGDGSLTGADTFRSEWSDLLNDLQKDGKITAEERTKSSYLNIVFLVGSIDNDFCGTDMTIGTDSALHRIVEIVDAITTTAQSHQRTFVLEVMGRHCGYLALVTSLSCGADWVFIPECPPDDDWEEHLCRRLSETRTRGSRLNIIIVAEGAIDKNGKPITSEDIKNLVVKRLGYDTRVTVLGHVQRGGTPSAFDRILGSRMGVEAVMALLEGTPDTPACVVSLSGNTAVRLPLMECVQVTKDVTKAMDEKRFDEAIKLRGRSFMNNWEVYKLLAHVRPPVSKGGLHTVAVMNVGAPAAGMNAAVRSTVRIGLIQGNRVLVVHDGFEGLAKGQIEEAGWSYVGGWTGQGGSKLGTKRTLPKKNLEQISANITKYNIQGLVIIGGFEAYTGGLELMEGRKQFDELCIPFVVIPATVSNNVPGSDFSIGADTALNTICTTCDRIKQSAAGTKRRVFIIETMGGYCGYLATMAGLAAGADAAYIFEEPFTIRDLQVNVEHLVQKMKTTVKRGLVLRNEKCNENYTTDFIFNLYSEEGKGIFDSRKNVLGHMQQGGNPTPFDRNFATKMGAKATNWMSGKIKESYRNGRIFANTPDSGCVLGMRKRALVFQPVTELKDQTDFEHRIPKEQWWLKLRPILKILAKYEIDLDTSDHAHLEHISRKRSGEAAV

binding [4]: no binding
B2: phosphofructokinase, platelet type (PFKP) (enzyme, UniProt P47860 1-788)
chain: MSDQDSSTSSTSFPKYLEHLSGDGKAIGVLTSGGDAQGMNAAVRAVVRMGIYTGAKVYFIYEGYQGMVDGGSNIVEAKWECVSSILQVGGTIIGSARCQAFRSREGRLKAACNLVRLGITNLCVIGGDGSLTGANLFRKEWSGLLEELAKNGEIDSDTVKKHAYLNVVGMVGSIDNDFCGTDMTIGTDSALHRIIEVVDAIMTTAQSHQRTFVLEVMGRHCGYLALVSALACGADWVFLPESPPEEGWEEEMCLKLSENRARKKRLNIIIVSEGAIDTQNKPITSEKIKELVVTNLGFDTRVTILGHVQRGGTPSAFDRILASRMGVEAVLALLEATPETPACVVSLRGNQAVRLPLMECVQMTQDVQKAMDERRFDEAVKLRGRSFEGNLNTYKRLAIKEPDDKIPKSNCNVAIINVGAPAAGMNAAVRSAVRVGIAEGHKMFAIYDGFDGLANGQIKEIGWGDVGGWTGQGGSILGTKRTLPGKYLEKIAEQMHSKNINALLIIGGFEAYLGLLELAAARNKHEAFCVPMVMVPATVSNNVPGSDFSIGADTALNTITDTCDRIKQSASGTKRRVFIIETMGGYCGYLANMGGLAAGADAAYIFEEQFDIRDLQSNVMHLTEKMKTSIQRGLVLRNENCSVNYTTDFIYQLYSEEGKGVFDCRKNVLGHMQQGGAPSPFDRNFGTKISAKAMEWISAKLKGSHGTGKKFVSDDSICVLGIQKRDLLFKPVAELRKATDFEHRIPKQQWWLKLRPIMKILAKYEASYDMSDVGKLEPVHNHGELSAI
